Measured values reported in patent publication US4791118A, “Quinolonecarboxylic acid derivatives and their preparation” (Kyorin Pharmaceutical Co., Ltd., priority 1985, dated 1988).
In brackets after ≈: the same amount, converted by molar mass.

Tests used:
[1] = tested on: B. thetaiotaomicron (0661); assay: MIC, anaerobic bacteria; format: cell-based; settings: Bacteroides thetaiotaomicron, Gram -, 10^6 cells/ml
Text: (§1) | Organism (10^6 cells/ml)

[2] = tested on: Shigella sonnei IID 969; assay: microbe, parasite or virus in culture; settings: IID969
[3] = tested on: F. varium KYA 8501; assay: microbe, parasite or virus in culture; settings: Fusobacterium varium, KYA8501
[4] = tested on: E. coli ML 4707; assay: MIC, aerobic bacteria; format: cell-based; settings: Escherichia coli, ML4707, Gram -, 10^6 cells/ml
Text: as §1

[5] = tested on: Propionibacterium acens 11828; assay: MIC, anaerobic bacteria; format: cell-based

Question: Which results are given for `O=C(O)c1cn(C2CC2)c2cc(N3CCNCC3)c(F)cc2c1=O` [CPFX, ciprofloxacin, reference compound]?
Answer: MIC [1]: 12.5 µg/mL (≈ 37.7 µM); MIC [2]: 0.0125 µg/mL (≈ 0.0377 µM); MIC [3]: 12.5 µg/mL (≈ 37.7 µM); MIC [4]: 0.0125 µg/mL (≈ 0.0377 µM); MIC [5]: 12.5 µg/mL (≈ 37.7 µM)
